Assay results published in publication PMC13383472.
No constants are given. Whether binding was seen depends on the method and setting. In cells and extracts the contact can be indirect. Some binding calls cover weakened binding; strength is not graded here.

By UniProt entry, the sequences of proteins in these tests, tags left out. Where a name states a change or a piece, a line headed by the entry shows the natural chain unless it says otherwise. Residues count along the entry.
UniProt P13612: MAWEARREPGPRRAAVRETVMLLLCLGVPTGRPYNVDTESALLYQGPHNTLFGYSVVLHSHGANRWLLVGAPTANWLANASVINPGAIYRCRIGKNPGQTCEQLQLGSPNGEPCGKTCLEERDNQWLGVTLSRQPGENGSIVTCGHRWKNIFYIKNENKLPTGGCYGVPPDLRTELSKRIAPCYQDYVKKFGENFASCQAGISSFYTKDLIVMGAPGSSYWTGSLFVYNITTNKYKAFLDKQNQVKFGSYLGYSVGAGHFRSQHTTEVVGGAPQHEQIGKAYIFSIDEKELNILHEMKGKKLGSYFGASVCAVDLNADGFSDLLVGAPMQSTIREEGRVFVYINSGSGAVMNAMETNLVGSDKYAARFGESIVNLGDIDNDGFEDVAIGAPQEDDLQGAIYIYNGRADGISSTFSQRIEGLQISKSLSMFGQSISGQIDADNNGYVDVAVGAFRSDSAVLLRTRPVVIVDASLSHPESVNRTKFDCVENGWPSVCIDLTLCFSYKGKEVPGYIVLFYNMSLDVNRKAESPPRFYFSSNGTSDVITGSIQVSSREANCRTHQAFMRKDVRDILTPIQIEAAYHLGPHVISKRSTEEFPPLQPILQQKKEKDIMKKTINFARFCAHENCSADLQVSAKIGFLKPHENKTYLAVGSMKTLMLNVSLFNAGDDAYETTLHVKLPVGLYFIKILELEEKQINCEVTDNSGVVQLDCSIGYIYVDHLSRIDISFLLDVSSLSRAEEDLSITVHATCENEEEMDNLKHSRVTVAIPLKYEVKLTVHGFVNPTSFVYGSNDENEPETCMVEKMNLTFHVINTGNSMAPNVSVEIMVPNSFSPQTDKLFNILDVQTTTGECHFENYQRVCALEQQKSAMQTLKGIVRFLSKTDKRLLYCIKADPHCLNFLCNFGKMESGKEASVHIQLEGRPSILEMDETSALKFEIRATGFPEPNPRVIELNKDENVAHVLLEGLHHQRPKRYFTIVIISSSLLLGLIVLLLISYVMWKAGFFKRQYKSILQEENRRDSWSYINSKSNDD
UniProt P05556: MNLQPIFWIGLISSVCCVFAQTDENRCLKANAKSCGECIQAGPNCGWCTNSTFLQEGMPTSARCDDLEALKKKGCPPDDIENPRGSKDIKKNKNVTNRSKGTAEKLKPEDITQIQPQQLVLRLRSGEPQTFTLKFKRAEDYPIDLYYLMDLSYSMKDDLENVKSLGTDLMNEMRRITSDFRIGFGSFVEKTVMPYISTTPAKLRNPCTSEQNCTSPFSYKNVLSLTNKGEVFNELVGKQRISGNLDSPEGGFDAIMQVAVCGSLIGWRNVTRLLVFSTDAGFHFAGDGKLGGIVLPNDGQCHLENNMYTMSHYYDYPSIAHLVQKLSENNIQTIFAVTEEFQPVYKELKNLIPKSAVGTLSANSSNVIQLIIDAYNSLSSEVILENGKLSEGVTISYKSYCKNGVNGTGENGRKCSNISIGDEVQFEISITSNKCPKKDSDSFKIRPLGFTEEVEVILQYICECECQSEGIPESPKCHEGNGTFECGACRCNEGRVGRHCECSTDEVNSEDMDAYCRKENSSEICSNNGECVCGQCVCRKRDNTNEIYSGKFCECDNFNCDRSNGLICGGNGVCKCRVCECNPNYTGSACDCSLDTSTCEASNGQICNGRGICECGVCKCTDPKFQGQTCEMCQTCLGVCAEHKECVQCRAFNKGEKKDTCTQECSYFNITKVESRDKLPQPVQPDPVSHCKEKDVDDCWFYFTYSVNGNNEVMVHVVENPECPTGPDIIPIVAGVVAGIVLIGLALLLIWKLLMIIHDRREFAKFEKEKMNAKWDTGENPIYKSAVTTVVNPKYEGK
UniProt P10451, residues 17-314: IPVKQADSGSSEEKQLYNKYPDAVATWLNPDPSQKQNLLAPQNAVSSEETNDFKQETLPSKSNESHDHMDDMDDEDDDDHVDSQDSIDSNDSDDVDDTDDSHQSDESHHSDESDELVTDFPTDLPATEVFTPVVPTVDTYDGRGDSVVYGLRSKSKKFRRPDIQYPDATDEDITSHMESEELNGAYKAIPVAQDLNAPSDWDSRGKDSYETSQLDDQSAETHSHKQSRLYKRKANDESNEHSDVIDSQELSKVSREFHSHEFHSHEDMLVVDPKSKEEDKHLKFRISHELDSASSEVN

Molecular target: integrin α4β1 (human (endogenous in HN30-R8)) (UniProt P13612+P05556)
Assay: co-IP; Dynabeads M-270 Epoxy coupled with antibody (CD44, integrin αV, β1, β6, β3); RIPA whole cell lysates of CDDP-resistant HN30-R8 cells; 4 °C; SDS-PAGE and Western blotting

## Secreted phosphoprotein 1 (SPP1) (from UniProt P10451 17-314)
  binding: binds
